The target of the assay is FLAG-RNF126 C229A/C232A (catalytically inactive RNF126 mutant) (human) (UniProt Q9BV68). Kind of assay: affinity purification with mass spectrometry; extracts of HCC1806 cells stably expressing FLAG-RNF126 mutant immunopurified with anti-FLAG affinity beads, eluted with FLAG peptide, SDS/PAGE, silver stain, mass spectrometry.

Sequences of proteins named here, by UniProt entry; tags and fusion partners are left off. A change or cut given only in a name is not applied to a line headed by its entry.
UniProt Q9BV68: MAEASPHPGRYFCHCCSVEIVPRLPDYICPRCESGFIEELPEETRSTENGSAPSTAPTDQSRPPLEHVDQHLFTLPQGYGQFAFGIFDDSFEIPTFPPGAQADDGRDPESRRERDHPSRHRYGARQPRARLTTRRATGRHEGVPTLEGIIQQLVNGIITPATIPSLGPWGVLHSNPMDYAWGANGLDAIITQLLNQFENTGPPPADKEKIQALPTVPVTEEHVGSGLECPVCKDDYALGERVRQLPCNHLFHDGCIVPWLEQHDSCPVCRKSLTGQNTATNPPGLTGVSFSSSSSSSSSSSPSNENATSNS
UniProt Q92878: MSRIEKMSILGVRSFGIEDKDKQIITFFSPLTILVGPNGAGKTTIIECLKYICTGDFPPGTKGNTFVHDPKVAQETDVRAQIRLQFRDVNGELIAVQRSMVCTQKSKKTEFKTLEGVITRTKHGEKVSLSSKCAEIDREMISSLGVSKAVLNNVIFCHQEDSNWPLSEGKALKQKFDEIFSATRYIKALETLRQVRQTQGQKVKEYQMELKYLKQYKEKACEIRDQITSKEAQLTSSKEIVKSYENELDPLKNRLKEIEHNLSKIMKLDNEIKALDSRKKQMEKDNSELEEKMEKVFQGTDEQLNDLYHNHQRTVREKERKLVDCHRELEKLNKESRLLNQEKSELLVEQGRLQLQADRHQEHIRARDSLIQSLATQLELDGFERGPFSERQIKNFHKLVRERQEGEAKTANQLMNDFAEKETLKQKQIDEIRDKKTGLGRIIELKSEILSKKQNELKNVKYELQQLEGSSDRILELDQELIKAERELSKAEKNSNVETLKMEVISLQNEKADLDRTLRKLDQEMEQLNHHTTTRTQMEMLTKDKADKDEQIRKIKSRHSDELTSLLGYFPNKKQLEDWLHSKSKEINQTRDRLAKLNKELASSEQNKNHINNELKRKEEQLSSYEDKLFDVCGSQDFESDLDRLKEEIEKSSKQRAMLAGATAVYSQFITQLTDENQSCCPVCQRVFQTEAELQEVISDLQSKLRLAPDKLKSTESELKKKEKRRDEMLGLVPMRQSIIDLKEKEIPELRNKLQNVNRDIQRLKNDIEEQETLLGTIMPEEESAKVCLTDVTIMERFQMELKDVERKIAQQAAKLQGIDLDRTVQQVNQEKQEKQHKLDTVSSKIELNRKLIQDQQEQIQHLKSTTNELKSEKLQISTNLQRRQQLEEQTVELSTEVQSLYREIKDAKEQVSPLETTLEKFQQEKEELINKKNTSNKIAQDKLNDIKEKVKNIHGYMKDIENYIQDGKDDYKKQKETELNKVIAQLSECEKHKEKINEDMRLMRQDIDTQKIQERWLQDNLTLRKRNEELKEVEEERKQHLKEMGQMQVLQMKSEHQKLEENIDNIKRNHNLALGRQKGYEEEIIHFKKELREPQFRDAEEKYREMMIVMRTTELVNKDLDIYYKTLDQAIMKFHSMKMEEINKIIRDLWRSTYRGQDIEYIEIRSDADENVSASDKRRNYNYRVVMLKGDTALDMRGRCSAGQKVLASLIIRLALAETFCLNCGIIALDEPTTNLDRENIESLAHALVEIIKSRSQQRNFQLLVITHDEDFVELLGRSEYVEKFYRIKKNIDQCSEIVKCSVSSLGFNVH

Results are given in words; binding and its absence hold for the method and conditions named. In cells and extracts the contact can be indirect. Here binding means that the protein was enriched with, or labelled near, the bait; the list need not be complete.

For the substance “RAD50 (endogenous, HCC1806) (from UniProt Q92878 1-1312)”, the binding entry is reported as “binds”.

The values above are taken from publication PMC9929257.
